Data: patent US20250099478A1, “PLASMA KALLIKREIN INHIBITORS” (Merck Sharp & Dohme LLC, priority 2022, published 2025)
The structures given here were assigned with low confidence; some may be wrong.

Protein sequences, listed by entry. Tags and fused reporters are not part of them. Residues count along the entry.
UniProt P03951, 388-625 limits assumed: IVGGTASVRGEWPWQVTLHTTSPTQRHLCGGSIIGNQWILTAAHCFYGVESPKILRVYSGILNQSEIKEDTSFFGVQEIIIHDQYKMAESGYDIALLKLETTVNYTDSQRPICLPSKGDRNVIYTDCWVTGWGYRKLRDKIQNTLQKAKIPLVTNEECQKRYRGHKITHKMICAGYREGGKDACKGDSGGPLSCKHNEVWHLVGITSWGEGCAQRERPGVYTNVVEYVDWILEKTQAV
UniProt P03951, 19-387 partner limits assumed: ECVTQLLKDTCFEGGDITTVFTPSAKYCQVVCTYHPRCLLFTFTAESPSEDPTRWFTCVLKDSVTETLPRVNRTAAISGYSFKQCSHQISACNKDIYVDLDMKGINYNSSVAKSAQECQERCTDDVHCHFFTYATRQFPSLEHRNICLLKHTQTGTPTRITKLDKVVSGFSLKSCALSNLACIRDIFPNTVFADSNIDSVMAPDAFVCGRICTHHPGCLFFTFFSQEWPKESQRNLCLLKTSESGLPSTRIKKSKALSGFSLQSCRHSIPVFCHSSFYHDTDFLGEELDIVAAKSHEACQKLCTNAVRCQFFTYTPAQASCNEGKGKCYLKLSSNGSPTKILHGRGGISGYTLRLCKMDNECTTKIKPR
UniProt P03952, 391-638 limits assumed: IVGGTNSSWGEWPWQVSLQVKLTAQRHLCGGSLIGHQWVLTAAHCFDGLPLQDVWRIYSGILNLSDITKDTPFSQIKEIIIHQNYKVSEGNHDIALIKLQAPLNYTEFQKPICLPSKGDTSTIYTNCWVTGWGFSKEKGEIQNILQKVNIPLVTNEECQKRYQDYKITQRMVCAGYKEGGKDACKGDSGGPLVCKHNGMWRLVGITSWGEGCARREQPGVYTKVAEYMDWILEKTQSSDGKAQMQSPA
UniProt P03952, 20-390 partner limits assumed: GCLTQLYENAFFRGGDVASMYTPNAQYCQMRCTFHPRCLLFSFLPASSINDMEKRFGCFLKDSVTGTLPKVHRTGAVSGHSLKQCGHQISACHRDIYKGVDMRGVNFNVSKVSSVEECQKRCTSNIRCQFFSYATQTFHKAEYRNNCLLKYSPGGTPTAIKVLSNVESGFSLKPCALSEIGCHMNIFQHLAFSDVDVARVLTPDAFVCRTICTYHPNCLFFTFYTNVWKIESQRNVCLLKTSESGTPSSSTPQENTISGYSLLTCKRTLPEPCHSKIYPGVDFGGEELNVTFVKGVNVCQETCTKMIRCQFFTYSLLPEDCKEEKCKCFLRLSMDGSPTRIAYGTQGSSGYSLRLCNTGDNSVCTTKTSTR

Assays:
[1] = target: human factor XIa (Homo sapiens, UniProt P03951); test: Factor XIa Assay; conditions: read-out: Factor XIa IC50; human factor XIa 0.04 nM, substrate GPR-AFC, 25° C.
Description: The effectiveness of a compound of the present invention as an inhibitor of Coagulation factor XIa can be determined using a relevant purified serine protease, and an appropriate synthetic substrate. The rate of hydrolysis of the chromogenic or fluorogenic substrate by the relevant serine protease was measured both in the absence and presence of compounds of the present invention. Assays were conducted at rt or at 37° C. […] A decrease in the rate of fluorescence change in the presence of inhibitor is indicative of enzyme inhibition. Such methods are known to one skilled in the art. The results of this assay are expressed as the half-maximal inhibitory concentrations (IC50), or the inhibitory constant, Ki.
Compounds were pre-incubated for 30 min at 25° C. with human (0.04 nM) factor XIa in 50 mM HEPES buffer with 150 mM sodium chloride, 5 mM calcium chloride, 0.1% PEG 8000, pH 7.4. factor XIa enzymatic activity was determined by addition of the substrate glycine-proline-arginine-7-amido-4-trifluoromethylcoumarin (GPR-AFC) and measurement of the fluorescence at 400/505 nm after a 60 min incubation at 25° C. The % inhibition for each data point was calculated from the data and analyzed using the log (inhibitor) vs. response four parameters equation to determine the half-maximal inhibitory concentrations (IC50). […]

[2] = target: Human plasma kallikrein (Homo sapiens, UniProt P03952); test: Plasma Kallikrein Assay; conditions: read-out: PKal IC50; purified Human plasma kallikrein 0.5 nM, substrate Acetyl-K-P-R-AFC

## O=C1CC2(CCCN(C(=O)c3nnc(Cc4ccccc4)[nH]3)C2)c2c(ccc(Cl)c2F)N1 (centres unmarked)
[1]
  IC50: 8.78 µM
[2]
  IC50: 43.1 nM
